Earlier results in US5580860A, “Pharmaceutical composition containing 2-amino-6-chloropurine-9-β-D-2',3'-dideoxyribofuranoxside” (priority 1989, dated 1996).
At least one compound was matched to its structure with a doubt left.

System: HIV
Details: acting directly against reverse transcriptase; cited from earlier work

With `Cc1cn([C@H]2C[C@H](N=[N+]=[N-])[C@@H](CO)O2)c(=O)[nH]c1=O` [AZT, azidothymidine] as the compound, how does the anti-HIV property read?
The anti-HIV property was “high anti-HIV property”.
